In article doi:10.1101/2022.07.07.499247 one finds binding data, which are given here for 2 molecules.

Amino acid sequences for entries named in this document (tags omitted).
UniProt Q7KQL5: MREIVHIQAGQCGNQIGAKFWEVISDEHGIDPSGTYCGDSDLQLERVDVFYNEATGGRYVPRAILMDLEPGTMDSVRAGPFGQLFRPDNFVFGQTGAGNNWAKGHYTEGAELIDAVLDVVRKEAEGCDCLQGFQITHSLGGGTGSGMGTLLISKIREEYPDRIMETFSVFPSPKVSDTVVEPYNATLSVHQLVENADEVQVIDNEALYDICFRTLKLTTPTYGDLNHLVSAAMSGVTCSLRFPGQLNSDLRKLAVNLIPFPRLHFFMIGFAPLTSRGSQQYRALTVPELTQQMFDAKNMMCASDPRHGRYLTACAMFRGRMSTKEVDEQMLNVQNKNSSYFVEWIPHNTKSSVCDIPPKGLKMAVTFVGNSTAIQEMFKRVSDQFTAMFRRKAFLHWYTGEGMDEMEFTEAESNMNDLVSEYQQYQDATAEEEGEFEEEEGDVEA

The target of experiment [1] is recombinant beta tubulin of Plasmodium falciparum (Plasmodium falciparum) (UniProt Q7KQL5). Briefly: MST.
Experiment [2] has the same target. Briefly: ELISA. Background: ELISA stands for enzyme-linked immunosorbent assay.
Experiment [3] concerns the target endogenous beta tubulin in Plasmodium falciparum parasite lysate (Plasmodium falciparum (endogenous in parasite lysate)) (UniProt Q7KQL5). Briefly: co-IP.

Results are given in words; binding and its absence hold for the method and conditions named. For part of these data: Binding seen in cells or lysates may run through a third protein. Some entries that bind do so weakly or less than the wild type.

B1: recombinant Plasmodium falciparum cold shock protein PfCoSP (PF3D7_0109600) (protein, UniProt Q8I248 1-150)
chain: MLRRKIHIHFNSYKKHFFSQLINKEKHDKITGNVIMFDKRKGYGFIKPNDGGPDIFVHYTDICQSRTFEVTNEEKKKLAWNANMDITQKKEEYNFEYDNNNNNNNNKHNKKKEEIKKEFKYLVPGERVKFSVIYDEKSNSSKAINVDYID
Turning to B1, the binding result in experiment [1] and in experiment [2] was “binds” in each case.

B2: endogenous PfCoSP in Plasmodium falciparum parasite lysate (protein, UniProt Q8I248 1-150)
chain: MLRRKIHIHFNSYKKHFFSQLINKEKHDKITGNVIMFDKRKGYGFIKPNDGGPDIFVHYTDICQSRTFEVTNEEKKKLAWNANMDITQKKEEYNFEYDNNNNNNNNKHNKKKEEIKKEFKYLVPGERVKFSVIYDEKSNSSKAINVDYID
Consider B2, for which the binding result in experiment [3] was “binds”.
